Measurements reported in patent US20230183349A1.
No constants are given. Whether binding was seen depends on the method and setting. Some results given as binding are weak or reduced against the parent protein; the word gives no strength.

Sequences of proteins named here, by UniProt entry; tags and fusion partners are left off. A change or cut given only in a name is not applied to a line headed by its entry.
UniProt Q15116: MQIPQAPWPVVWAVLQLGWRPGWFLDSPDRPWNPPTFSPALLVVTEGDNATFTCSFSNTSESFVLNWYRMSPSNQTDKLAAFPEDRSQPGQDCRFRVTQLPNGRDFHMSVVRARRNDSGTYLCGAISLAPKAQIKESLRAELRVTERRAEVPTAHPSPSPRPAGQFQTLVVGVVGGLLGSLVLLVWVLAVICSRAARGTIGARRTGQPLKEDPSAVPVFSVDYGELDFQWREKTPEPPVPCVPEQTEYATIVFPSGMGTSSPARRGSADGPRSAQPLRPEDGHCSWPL

Target: full-length human PD1 on cells (human) (UniProt Q15116)
Test: cell ELISA on CHO-PD1 cells (row 'CHO-PD1 EC50')

B1: PD1-0103-0314 (antibody, human IgG1, V domains shown)
VH: EVQLLESGGGLVQPGGSLRLSCAASGFSFSSYTMSWVRQAPGKGLEWVATISGGGRDIYYPDSVKGRFTISRDNSKNTLYLQMNSLRAEDTAVYYCVLLTGRVYFALDSWGQGTLVTVSS
VL: EIVLTQSPATLSLSPGERATLSCRASESVDTSDNSFIHWYQQKPGQSPRLLIYRSSTLESGIPARFSGSGSGTDFTLTISSLEPEDFAVYYCQQNYDVPWTFGQGTKVEIK
binding: binds
